PubChem BioAssay AID1259308 | NCATS, 2017
In all, the deposit lists about 59,000 reagents; below is an unselected part. About 1,510 of them (2.6%) count as active. 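Calls use total luciferase alone and ignore viability, so some active siRNAs may act by altering cell number.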 Entries without a mark were called inactive. Not all columns of the deposit are shown. No sequences are given here.

Purpose: 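Knock-downs that increase output of a recombinant reporter protein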 (primary screen)
Cells: human HEK293 embryonic kidney cells stably expressing firefly luciferase (HEK-CMV-Luc2-Hygro)
Knock-down reagent: single siRNA against human genes, 0.8 pmol siRNA per well
Time to read-out: 72 h
Measurement: 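Reporter luminescence and viable-cell signal on separate replicate plates, given as percent of non-targeting control and median/MAD z-scores, plus per-cell luciferase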
Reading the numbers: total luciferase, z-score and total luciferase, % of control: higher = more reporter protein produced; luciferase per cell, z-score: higher = more reporter output per viable cell
Call rule: 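Active when the median/MAD z-score for overall luciferase is greater than 3; a gene was taken forward for validation with new siRNAs if at least two of its three siRNAs passed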
Calls: active = raised luciferase; inactive = no rise

Target gene	PubChem SID	total luciferase, z-score	total luciferase, % of control	luciferase per cell, z-score
AKR1C4	SID160742607	-2.13	39.6	-1.34
AKR1C4	SID160742618	0.189	85.6	-0.525
AKR1C4	SID160742628	1.95	121	1.27
DENND5A	SID160735855	-0.29	76.1	0.405
DENND5A	SID160735856	0.298	87.8	0.128
DENND5A	SID160735857	1.18	105	1.38
SAMD12	SID160767292	-0.193	78.1	-0.286
SAMD12	SID160767294	-1.33	55.4	-0.812
SAMD12	SID160767295	2.87	139	1.89
ANKRD27	SID160751699	0.0238	82.4	-0.228
ANKRD27	SID160751700	-0.192	78.1	0.71
ANKRD27	SID160751701	1.12	104	1.31
NAV3	SID160753428	0.195	85.8	0.869
NAV3	SID160753429	-1.47	52.7	-0.999
NAV3	SID160753430	0.763	97.1	0.0809
TSGA10	SID160734989	-0.147	79	-1.13
TSGA10	SID160750468	-0.718	67.6	-0.529
TSGA10	SID160750469	-0.902	63.9	-0.947
SPANXA1	SID160724392	-0.51	71.7	-0.393
SPANXA1	SID160724393	-1.05	60.9	-0.272
SPANXA1	SID160739498	-0.571	70.5	-0.879
CNTFR	SID160745609	-0.756	66.9	1.46
CNTFR	SID160745620	-1.18	58.4	-0.303
CNTFR	SID160745630	1.25	107	0.458
CNFN	SID160724620	0.163	85.1	0.449
CNFN	SID160752346	1.45	111	0.567
CNFN	SID160752347	-0.89	64.2	-1.1

Entries listed so far whose gene name begins with S or s:
Target gene	PubChem SID	total luciferase, z-score	total luciferase, % of control	luciferase per cell, z-score
SAMD12	SID160767292	-0.193	78.1	-0.286
SAMD12	SID160767294	-1.33	55.4	-0.812
SAMD12	SID160767295	2.87	139	1.89
SPANXA1	SID160724392	-0.51	71.7	-0.393
SPANXA1	SID160724393	-1.05	60.9	-0.272
SPANXA1	SID160739498	-0.571	70.5	-0.879

Additional reagents:
Target gene	PubChem SID	total luciferase, z-score	total luciferase, % of control	luciferase per cell, z-score
IRAG1	SID160728204	-0.571	70.5	-0.479
IRAG1	SID160728205	-1.97	42.6	-2.02
IRAG1	SID160728207	3.03 (active)	142	1.19
MAEA	SID160728108	-0.889	64.2	-0.802
MAEA	SID160728109	-0.713	67.7	-0.0432
MAEA	SID160728111	0.319	88.2	-0.121
ANGPTL4	SID160731355	0.862	99	-0.171
ANGPTL4	SID160740136	-0.734	67.3	-1.17
ANGPTL4	SID160740138	-1.31	55.8	-0.983
PABIR3	SID160759724	0.318	88.2	0.384
PABIR3	SID160759725	-1.61	49.8	-0.661
PABIR3	SID160759726	-0.21	77.7	0.668
MNX1	SID160774986	-0.125	79.4	-0.164
MNX1	SID160774987	-0.385	74.2	-0.541
MNX1	SID160774988	-1.25	57	-1.59
FAM181B	SID160761526	0.435	90.5	0.889
FAM181B	SID160761527	-0.752	66.9	-0.358
FAM181B	SID160761528	1.41	110	1.89
PLPP7	SID160735118	-0.993	62.1	-0.609
PLPP7	SID160752736	-0.632	69.3	-0.847
PLPP7	SID160752737	-0.695	68.1	-0.851
SRBD1	SID160743022	0.987	102	0.367
SRBD1	SID160743023	-1.08	60.5	-1.46
SRBD1	SID160743025	0.0425	82.7	-0.166
SLC39A3	SID160739440	0.138	84.6	-0.403
SLC39A3	SID160739441	0.186	85.6	0.339
SLC39A3	SID160739442	1.11	104	0.748
AK7	SID160755973	-0.0659	80.6	0.104
AK7	SID160755974	0.139	84.6	-0.106
AK7	SID160755975	0.792	97.6	1.04
